Results are given in words; binding and its absence hold for the method and conditions named. Binding seen in cells or lysates may run through a third protein. Some results given as binding are weak or reduced against the parent protein; the word gives no strength.
Target: FUS (fused in sarcoma/translocated in liposarcoma), endogenous in embryonic mouse ovary (mouse (endogenous in embryonic mouse ovary)) (UniProt P56959)
Test: co-IP; endogenous proteins in embryonic mouse ovary lysates; antibody on Protein A/G magnetic beads, 1 h at room temperature; immunoblotting; IgG as negative control; also lysates of cultured ovaries transfected with control or AD-Hfm1i (FUS with FBXW11 increased, FUS with MDM2 not changed significantly)

Chains of the proteins cited; added tags and fusions are not shown.
UniProt P56959: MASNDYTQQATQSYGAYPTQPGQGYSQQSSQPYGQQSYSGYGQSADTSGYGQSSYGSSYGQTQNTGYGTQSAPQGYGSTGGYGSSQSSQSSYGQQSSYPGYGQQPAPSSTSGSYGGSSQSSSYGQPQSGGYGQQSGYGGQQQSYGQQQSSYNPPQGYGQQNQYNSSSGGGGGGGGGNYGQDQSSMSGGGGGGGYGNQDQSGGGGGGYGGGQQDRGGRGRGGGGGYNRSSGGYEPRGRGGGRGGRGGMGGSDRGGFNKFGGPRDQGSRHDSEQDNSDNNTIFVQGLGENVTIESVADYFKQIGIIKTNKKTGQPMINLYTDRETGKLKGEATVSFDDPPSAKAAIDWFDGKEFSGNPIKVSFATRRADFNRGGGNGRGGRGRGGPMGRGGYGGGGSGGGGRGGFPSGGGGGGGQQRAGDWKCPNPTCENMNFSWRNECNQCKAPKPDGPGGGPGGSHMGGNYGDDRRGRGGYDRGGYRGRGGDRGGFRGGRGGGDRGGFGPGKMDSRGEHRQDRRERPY

B1: Helicase for meiosis 1 (HFM1), endogenous in embryonic mouse ovary (protein, UniProt D3Z4R1 1-1434)
chain: MPKSDDCFFSMDNLFFSSPDETENFPVKEKSLDWFLPPAPLISEIPDIQELEEEIESYKLLGKGKMPRMLTSNLKIINEDTNCISPTQKIHFSYNVHEQDYLNLGGSNNNDMSHVAGKLMYGSSQKYKNHMGAKSPSARSSPGDTKLHDVAEDRQGTSAFKKRLSRTCDSEHDCDYADGSLNLSSHISPVKLTQTKISKENAWTCSNSKQKRQYSTNKFKANDAFSASGIGKDIFKAPSFPAASQPHDIQGITPNGLGSLKAVTEIPAKFRNIFKEFPYFNYIQSKAFDDLLYTDRNFVICAPTGSGKTVVFELAITRLLMEVPLPWLNMKIVYMAPIKALCSQRFDDWKEKFGPVGLNCKELTGDTVMDDLFEIQHANIIITTPEKWDSVTRKWRDNSFIQLVRLFLIDEVHVIKDENRGPTLEVVVSRMKTVQSLSRDLESASPVPVRFVAVSATIPNAEDIAEWLSDGERPAVCLKMDESHRPVKLQKVVLGFPCSSSQTEFKFDLALNYKVYSVIRTYSDQKPTLVFCSTRKGVQQAASVLVKDAKFIISVEQKLRLQKSAYSIRDSKLKDTLVYGVGYHHAGMELSDRKLVEGLFTSGDLPVLFTTSTLAMGMNMPAHLVVIKSTMHYSGGVFEEYSETDILQMIGRAGRPQFDTTATAVIMTRLSTREKYVQMLACNDTVESSLHRHLIEHLNAEIVLHTITDVNIALDWIRSTMLYIRALKNPSHYGFSSGLNKDGIEAKLQELCLKNLKDLSSLDLIKMDEDVNFKPTEAGRLMAWYYITFETVKKFCAISGKETLLDLISMISSCNEFLDVQLRISEKRILNTLNKDPNRITIRFPMAERIKTREMKVNCLIQAQLGCIPIQDFALTQDTVKIFRNGSRIARWLSDFVAAQEKKFAVLLNSVILTKCFKCKLWENSKHVSKQLDKIGISLSNTMVNAGLTSFKKIEEANARELELILNRHPPFGTQIKEAVAHLPKYELEVEQIARYSDIKAEILVTIILRNFEQLQTKRTAPDFHYATLIIGDADNQVVFKHKIMDSVLLKSGNWVKKIDVKRALISEDLSINLISSDYVGLDIHQKFTVFYFGPRKFVNETAMERSSETDISHSDYSGRATATGSSKGMATCKKPGNRECHHHCKNKHACGHDCCKIGVAQKPEVKESAMSSYLSDLKSRDAVSSLPLAKRLKIQMNKSQNVDLKEFGFTPRPSLSSISRSEYLNTPELSILEQRNQHEIYGKVQQGPSEYRDKEVLGVNLELGNEVWDDFDDESLIEVMSLSADAEKMAASGFGDTRDSSLGGSKLPFQKSSSRFQRDNSNSFASSPGKPDAYLRDCSRSSFGLSSVAEIPQRAENASLANLQERRPLTLSPVIERMCFAHSKKTPQSPKFKEVDIFIGNSGSKKEIDLSKYYPDDAAEEMKALLGIFNGIF
- binding: binds

B2: FBXW11, endogenous in embryonic mouse ovary (protein, UniProt Q5SRY7 1-542)
chain: MEPDSVIEDKTIELMCSVPRSLWLGCANLVESMCALSCLQSMPSVRCLQISNGTSSVIVSRKRPSEGNYQKEKDLCIKYFDQWSESDQVEFVEHLISRMCHYQHGHINSYLKPMLQRDFITALPEQGLDHIAENILSYLDARSLCAAELVCKEWQRVISEGMLWKKLIERMVRTDPLWKGLSERRGWDQYLFKNRPTDGPPNSFYRSLYPKIIQDIETIESNWRCGRHNLQRIQCRSENSKGVYCLQYDDDKIISGLRDNSIKIWDKSSLECLKVLTGHTGSVLCLQYDERVIVTGSSDSTVRVWDVNTGEVLNTLIHHNEAVLHLRFSNGLMVTCSKDRSIAVWDMASATDITLRRVLVGHRAAVNVVDFDDKYIVSASGDRTIKVWSTSTCEFVRTLNGHKRGIACLQYRDRLVVSGSSDNTIRLWDIECGACLRVLEGHEELVRCIRFDNKRIVSGAYDGKIKVWDLQAALDPRAPASTLCLRTLVEHSGRVFRLQFDEFQIISSSHDDTILIWDFLNVPPSAQNETRSPSRTYTYISR
- binding: binds
